Reference: PubChem BioAssay AID1259291 (Sanger Institute, 2017)
Aim: 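Search for gene knock-downs that act synergistically alongside anchor drugs to kill cells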 (primary screen). Cells: HT29 human colorectal cancer cells. Reagents: siRNA pool against human genes. Challenge: anchor drugs added a day after transfection: BYL719 at 1 µM, cetuximab at 5 µg/ml or trametinib at 10 nM, or DMSO vehicle alone. Detection: 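Cell viability as a fraction of the non-targeting pool, mean of replicates, robust z-scores from control wells; synergy scores for BYL719 (1 µM), cetuximab (5 µg/ml), trametinib (10 nM)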. Direction: robust z-score, knock-down alone and viability, knock-down alone: higher = more viable cells; synergy score with BYL719: higher = stronger synergistic killing with drug. Hit rule: 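a knock-down alone scoring under -3 on robust z-score is called essential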. Calls: active = essential (knock-down alone); inactive = no change alone.
Shown is an unselected part of 794 deposited reagents. 15 of all reagents (1.9%) count as active. 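Calls rest on knock-down alone; drug synergy scores do not affect them; drugs added a day post-transfection, DMSO vehicle as comparison.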 Viability is capped at 1. Not all columns of the deposit are shown. The record does not give: the amount of reagent, the time to read-out.

no.	target	robust z-score, knock-down alone	viability, knock-down alone (fraction of control)	synergy score with BYL719	Call
1	FGFRL1	0.552	1	-0.000432	inactive
2	MAP2K3	0.552	1	0.147	inactive
3	TSSK1B	0.0831	0.971	-0.0577	inactive
4	PRKAB1	-1.84	0.852	-0.0853	inactive
5	BRSK1	-0.296	0.947	-0.0849	inactive
6	ADCK5	0.552	1	0.0509	inactive
7	FES	-1.42	0.878	-0.0286	inactive
8	EFNA5	-0.516	0.934	-0.1	inactive
9	MAP4K3	0.552	1	0.00127	inactive
10	HK1	0.444	0.993	0.157	inactive
11	GOLGA5	0.356	0.988	-0.0344	inactive
12	GUK1	0.552	1	-0.133	inactive
13	FN3KRP	-1.85	0.851	-0.0133	inactive
14	NTRK1	-1.98	0.843	-0.114	inactive
15	TESK1	0.552	1	-0.124	inactive
16	MAPK10	0.552	1	-0.0311	inactive

Targets listed so far whose gene name starts with F or f:
target	robust z-score, knock-down alone	viability, knock-down alone (fraction of control)	synergy score with BYL719	Call
FGFRL1	0.552	1	-0.000432	inactive
FES	-1.42	0.878	-0.0286	inactive
FN3KRP	-1.85	0.851	-0.0133	inactive

More entries follow.
no.	target	robust z-score, knock-down alone	viability, knock-down alone (fraction of control)	synergy score with BYL719	Call
17	PRKAR1A	0.0416	0.968	0.00583	inactive
18	MAGI2	0.552	1	-0.0359	inactive
19	PRKDC	0.0113	0.966	0.12	inactive
20	UCKL1	-0.232	0.951	-0.0613	inactive
21	RPS6KA2	0.552	1	0.205	inactive
22	BMPR1B	0.552	1	0.0607	inactive
23	SKAP1	0.552	1	-0.0424	inactive
24	CHEK1	-4.47	0.689	-0.0667	active
25	ACVR2A	-1.47	0.874	-0.128	inactive
26	SCYL3	0.326	0.986	-0.0123	inactive
27	BMX	-1.99	0.842	-0.0523	inactive
28	PDK2	0.552	1	0.0445	inactive
29	NADK	0.552	1	0.1	inactive
30	PTK7	0.552	1	0.137	inactive
31	PIP5K1C	0.552	1	0.0256	inactive
32	FGFR2	-0.961	0.906	-0.0161	inactive
33	DLG4	0.552	1	-0.0729	inactive
34	LMTK1	-0.869	0.912	-0.0377	inactive
